Experimental data from PubChem BioAssay AID662 (National Center for Advancing Translational Sciences (NCATS), 2007).
The other results are listed elsewhere or left out. The main result of the screen is listed elsewhere. These columns were measured beside it and carry no call. Compounds called inactive in the main read-out are mostly missing here. Words in brackets tell the shape of the fitted curve; partial curves, single points and poor fits give uncertain potencies.

assay: Cell signaling CRE-BLA (Fsk stim); conditions: CHO CRE-bla reporter (cAMP response element driving beta-lactamase), forskolin EC10, beta-lactamase ratio; measured here: 460 nm blue channel
Summary of the method: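 AC50 values, positive or negative, reflect shifts in EC10 NKH 477-induced CRE-bla reporter activity in CHO cells. Incubation lasted 3 h at 37 °C before CCF4 substrate (2 h, room temperature) and ratiometric 460/530 nm reading.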

| SMILES | AC50 |
| --- | --- |
| CCOC(=O)c1ccc2c(c1)nc(C1CCN(S(=O)(=O)c3cccs3)CC1)n2CC | 0.00316 µM [falling, full curve, poor fit] |
| COc1ccc(CNC(=O)c2cc3c(=O)n4ccccc4nc3n(Cc3cccnc3)c2=N)cc1 | 7.94 µM [rising, partial curve, poor fit] |
| CC1(C)C(c2cccs2)=[N+]([O-])C2(CCCCC/C2=N\O)N1O (configuration not stated) | 0.126 µM [falling, full curve, poor fit] |
| O=c1c2ccccc2nc(SCc2cn3ccsc3n2)n1-c1ccccc1 | 1.26 µM [rising, full curve] |
| CCCn1c(NC(=O)C2CCN(S(=O)(=O)c3cccs3)CC2)nc2ccccc21 | 7.94 µM [falling, partial curve] |
| CCOC(=O)N1CCC(c2nc3ccccc3[nH]2)CC1 | 6.31 µM [falling, partial curve, poor fit] |
| Cc1c(C(=O)Nc2ccc(N3CCOCC3)cc2)oc2ccccc12 | 25.1 µM [rising, single point] |
| N#CC1=C(N)OC(c2ccccc2)=C(C#N)C1c1ccc2c(c1)OCO2 (configuration not stated) | 0.00316 µM [falling, full curve] |
| Nc1ccc2cc3ccccc3cc2c1 | 25.1 µM [rising, partial curve] |
| COc1ccc(C(=O)N2CCC3(CCN(Cc4ccc(C#N)cc4)CC3)CC2)cc1 | 20 µM [rising, single point] |
| O=C(CSc1nnc(-c2ccc(NS(=O)(=O)c3ccccc3)cc2)o1)NCC1CCCO1 (configuration not stated) | 5.01 µM [falling, partial curve] |
| CC(=O)Nc1cccc(NC(=O)c2c(-c3c(Cl)cccc3Cl)noc2C)c1 | 1.26 µM [falling, partial curve, poor fit] |
| Cc1ccccc1Nc1nc(N)nc(CSc2nnnn2-c2ccccc2)n1 | 10 µM [rising, partial curve] |
| COC(=O)[C@@]1(Cc2ccc(OC)cc2)[C@H]2c3cc(C(=O)N(C)C)n(Cc4ccc(C)c(F)c4F)c3C[C@H]2CN1C(=O)c1ccccc1 | 25.1 µM [rising, partial curve] |
| CCOC(=O)CNC(=O)C(Cc1ccccc1)NS(=O)(=O)c1cccs1 (configuration not stated) | 0.398 µM [falling, partial curve] |
| COc1ccc(C2C(C(=O)N3CCN(c4ccc(OC)cc4)CC3)c3ccccc3C(=O)N2C)cc1 (configuration not stated) | 0.00398 µM [falling, full curve, poor fit] |
| Cc1ccccc1NC(=O)N1CCCC(c2nc(-c3ccc(C(C)C)cc3)no2)C1 (configuration not stated) | 12.6 µM [falling, partial curve, poor fit] |
| COc1cc2c(cc1NC(=O)CN(C)Cc1nc3ccccc3c(=O)[nH]1)oc1ccccc12 | 2.51 µM [rising, partial curve] |
| O=C(Cc1cn2ccsc2n1)OCc1nc2ccccc2s1 | 0.158 µM [falling, full curve] |
| Cc1n[nH]c(=O)nc1NCC1CCCO1 (configuration not stated) | 1 µM [falling, single point] |
| O=C(CCn1c(=O)oc2ccccc21)Nc1ccon1 | 2 µM [rising, single point] |

2 records drawn at random from the list so far:

| SMILES | AC50 |
| --- | --- |
| CC(=O)Nc1cccc(NC(=O)c2c(-c3c(Cl)cccc3Cl)noc2C)c1 | 1.26 µM [falling, partial curve, poor fit] |
| N#CC1=C(N)OC(c2ccccc2)=C(C#N)C1c1ccc2c(c1)OCO2 (configuration not stated) | 0.00316 µM [falling, full curve] |

(list continues)

| SMILES | AC50 |
| --- | --- |
| Cc1cc(N2CCCC2)n2nc(C)nc2n1 | 12.6 µM [rising, single point] |
| CCC(=O)c1cc2c(cc1NC(=O)C(C)C)OCCO2 | 10 µM [rising, single point] |
| COc1cc2cc(C(c3nnnn3C3CCCC3)N(C)C3CCCCC3)c(=O)[nH]c2cc1OC (configuration not stated) | 10 µM [rising, partial curve] |
| Cn1c(=O)[nH]c(=O)c2c1nc(N1CCCCC1)n2CCOc1ccccc1 | 3.98 µM [rising, full curve, poor fit] |
| CC(=O)n1nc(-c2ccccc2)nc1NCc1ccc(F)cc1 | 0.00316 µM [falling, full curve, poor fit] |
| CCC(=O)c1cc2c(C)cc(=O)oc2c(C)c1O | 2.51 µM [rising, full curve] |
| CCOC(=O)c1cnc(SCC(=O)Nc2ccc(NC(=O)CC)c(OC)c2)nc1N | 20 µM [rising, single point] |
| CCCCOC(=O)CCn1c(=S)oc2ccccc21 | 10 µM [rising, single point] |
| CCc1cccc(C)c1NC(=O)CSc1nc2ccccc2n1CC(=O)N(C)C | 10 µM [rising, single point] |
| c1ccc(Cn2nnc3c(Nc4ccc5c(c4)OCO5)nc(C4CC4)nc32)cc1 | 10 µM [rising, partial curve] |
| COc1ccc(C2C3=C(CCCC3=O)Nc3nc(C(F)(F)F)nn32)c(OC)c1OC (configuration not stated) | 2 µM [rising, partial curve] |
| CCc1nc(OCCN(CC)CC)c2oc3ccccc3c2n1 | 25.1 µM [rising, single point] |
| O=C(CSc1ncn(-c2ccccc2)n1)Nc1nc2c(s1)CCCC2 | 20 µM [rising, single point] |
| O=C1N(CN2CCN(c3cccc(Cl)c3)CC2)c2ccccc2C12OCCCO2 | 3.16 µM [falling, full curve] |
| Cc1nc2cnc(Oc3cccc(Cl)c3)nc2n(C[C@H]2CCCO2)c1=O | 10 µM [rising, single point] |
| O=C(OCC(=O)N1CCOCC1)c1ccc[nH]c1=O | 3.16 µM [rising, single point] |
| COC(=O)c1ccc(NC(=O)CSc2nnc(Cc3cccn3C)n2-c2ccc(F)cc2)cc1 | 12.6 µM [falling, partial curve] |
| COc1cc(NC(=O)c2ccco2)c(OC)cc1NC(=O)CSc1ncc(-c2ccc(F)cc2)[nH]1 | 15.8 µM [rising, single point] |
| CC1(C)CC(C)(O)P(=O)(c2ccccc2)O1 (configuration not stated) | 0.00316 µM [falling, full curve, poor fit] |
| O=C(Nc1ccc2oc(-c3ccncc3)nc2c1)c1ccccc1F | 12.6 µM [rising, partial curve] |
| O=C(C1CCN(c2ccc(N3CCOCC3)nn2)CC1)N1CCc2ccccc2C1 | 25.1 µM [rising, single point] |
